Data source: PubChem BioAssay AID1259308 (NCATS, 2017)
Here is one part, drawn at random, of about 59,000 reagents. Over the whole deposit, about 1,510 (2.6%) got an active call. 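Calls use total luciferase alone and ignore viability, so some active siRNAs may act by altering cell number.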 Entries without a mark were called inactive. The numbers tell different reagents against one gene apart.

Assay: 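Knock-downs that increase output of a recombinant reporter protein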 (primary screen)
System: human HEK293 embryonic kidney cells stably expressing firefly luciferase (HEK-CMV-Luc2-Hygro)
Reagents: single siRNA against human genes, 0.8 pmol siRNA per well
Duration: 72 h
Read-out: 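Luciferase light (ONE-Glo) measured on one replicate plate set and viability (CellTiter-Glo) on the other, scaled to a negative control siRNA, with robust z-scores and luciferase per cell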
Direction: total luciferase, z-score and total luciferase, % of control: higher = more reporter protein produced; luciferase per cell, z-score: higher = more reporter output per viable cell; viable cells, % of control: higher = more viable cells
Active means: 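An siRNA counts as active if its total luciferase robust z-score exceeds 3; genes with two or more such siRNAs out of three were retested with fresh siRNAs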
Calls: active = raised luciferase; inactive = no rise

| gene | reagent no. | total luciferase, z-score | total luciferase, % of control | luciferase per cell, z-score | viable cells, % of control |
| --- | --- | --- | --- | --- | --- |
| OR2C1 | 1 | -0.75 | 67 | -0.161 | 78.1 |
| OR2C1 | 2 | 1.81 | 118 | 1.73 | 83.5 |
| OR2C1 | 3 | -0.768 | 66.6 | 0.132 | 71.9 |
| ITPA | 1 | -0.885 | 64.3 | -0.643 | 85.1 |
| ITPA | 2 | -0.618 | 69.6 | -0.765 | 95.1 |
| ITPA | 3 | 0.795 | 97.7 | 0.119 | 106 |
| ANGPTL7 | 1 | 0.717 | 96.1 | 0.783 | 87.4 |
| ANGPTL7 | 2 | 3.96 (active) | 161 | 2.83 | 85.2 |
| ANGPTL7 | 3 | -0.338 | 75.2 | -0.383 | 92.9 |
| BAIAP2 | 1 | 1.59 | 113 | 0.919 | 99.5 |
| BAIAP2 | 2 | -1.53 | 51.5 | -1.25 | 79.9 |
| BAIAP2 | 3 | 1.54 | 112 | 2.72 | 61.5 |
| ADPGK | 1 | -1.54 | 51.3 | -1.29 | 80.6 |
| ADPGK | 2 | -0.0685 | 80.5 | -0.375 | 99.3 |
| ADPGK | 3 | 0.977 | 101 | 0.18 | 108 |
| ARCN1 | 1 | 1.76 | 117 | 2.48 | 67.9 |
| ARCN1 | 2 | 2.99 | 141 | 4.04 | 54.6 |
| ARCN1 | 3 | 2.34 | 128 | 2.4 | 76.3 |
| MCF2 | 1 | -0.196 | 78 | -0.897 | 110 |
| MCF2 | 2 | 0.111 | 84.1 | -0.52 | 108 |
| MCF2 | 3 | 0.541 | 92.7 | 0.178 | 98.8 |
| BRAF | 1 | 0.0639 | 83.2 | 0.231 | 87.4 |
| BRAF | 2 | -0.468 | 72.6 | -0.743 | 98.6 |
| BRAF | 3 | -1.23 | 57.5 | -0.722 | 77.7 |
| CRYGS | 1 | 0.336 | 88.6 | 0.277 | 92 |
| CRYGS | 2 | 0.671 | 95.2 | 0.901 | 83.9 |
| CRYGS | 3 | -1.3 | 56.1 | -1.44 | 91.4 |
| OXA1L | 1 | 0.404 | 89.9 | -0.0748 | 102 |
| OXA1L | 2 | 0.175 | 85.4 | 0.875 | 75.8 |
| OXA1L | 3 | 0.369 | 89.2 | 0.0466 | 98.5 |
| CABP2 | 1 | 0.406 | 90 | 0.158 | 96.4 |
| CABP2 | 2 | -0.335 | 75.2 | 0.821 | 67.7 |
| CABP2 | 3 | 1.88 | 119 | 1.37 | 93 |
| VSNL1 | 1 | 2.64 | 134 | 1.54 | 100 |
| VSNL1 | 2 | -0.851 | 65 | -1.06 | 96 |
| VSNL1 | 3 | 2.17 | 125 | 1.75 | 88.1 |
| GRIK5 | 1 | -1.88 | 44.5 | -1.45 | 72.8 |
| GRIK5 | 2 | -0.783 | 66.3 | -0.448 | 83.4 |
| GRIK5 | 3 | 2.94 | 140 | 1.97 | 93.4 |
| VWA3B | 1 | 2.35 | 129 | 2.71 | 70.4 |
| VWA3B | 2 | -0.558 | 70.8 | -0.87 | 99.5 |
| VWA3B | 3 | -1.04 | 61.3 | -0.494 | 78 |
| SSR2 | 1 | 1.46 | 111 | 1.04 | 94.1 |
| SSR2 | 2 | -0.966 | 62.7 | 1.33 | 49.4 |
| SSR2 | 3 | -0.092 | 80.1 | -0.236 | 95.2 |
| LOC440084 | 1 | -0.863 | 64.7 | -0.803 | 89.4 |
| LOC440084 | 2 | -0.269 | 76.5 | -0.906 | 109 |
| LOC440084 | 3 | -0.936 | 63.3 | -0.966 | 91.2 |
| SLC17A7 | 1 | -1.17 | 58.6 | -0.687 | 78.5 |
| SLC17A7 | 2 | -0.274 | 76.4 | -0.566 | 99.1 |
| SLC17A7 | 3 | 2.34 | 128 | 2.54 | 73.5 |
| USP51 | 1 | 0.302 | 87.9 | 0.0378 | 97.2 |
| USP51 | 2 | -1.84 | 45.2 | -1.05 | 66.6 |
| USP51 | 3 | -2.15 | 39.1 | -2.72 | 89.4 |
| UFSP1 | 1 | 3.59 (active) | 153 | 2.01 | 101 |
| UFSP1 | 2 | 0.677 | 95.3 | 0.592 | 91.2 |
| UFSP1 | 3 | -0.173 | 78.4 | -0.499 | 100 |

Laid out differently: 6 of the entries above
BAIAP2 #1 → total luciferase, z-score: 1.59; total luciferase, % of control: 113; luciferase per cell, z-score: 0.919; viable cells, % of control: 99.5
BAIAP2 #2 → total luciferase, z-score: -1.53; total luciferase, % of control: 51.5; luciferase per cell, z-score: -1.25; viable cells, % of control: 79.9
BAIAP2 #3 → total luciferase, z-score: 1.54; total luciferase, % of control: 112; luciferase per cell, z-score: 2.72; viable cells, % of control: 61.5
ADPGK #1 → total luciferase, z-score: -1.54; total luciferase, % of control: 51.3; luciferase per cell, z-score: -1.29; viable cells, % of control: 80.6
ADPGK #2 → total luciferase, z-score: -0.0685; total luciferase, % of control: 80.5; luciferase per cell, z-score: -0.375; viable cells, % of control: 99.3
ADPGK #3 → total luciferase, z-score: 0.977; total luciferase, % of control: 101; luciferase per cell, z-score: 0.18; viable cells, % of control: 108
